Laboratory results: PubChem BioAssay AID743121 (NCATS, 2013)

Test: 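Partners whose loss is lethal together with topoisomerase I blockade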 (primary screen)
Cells: MDA-MB-231 cells, a human breast cancer line
Knock-down reagent: single siRNA against human genes, 20 nM siRNA (0.8 pmol per well)
Time to read-out: 120 h (drug added 48 h after transfection, read 72 h later)
Conditions: camptothecin 20 nM (about EC30) for 72 h; vehicle 0.1% DMSO in parallel plates
Measured: 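CellTiter-Glo ATP signal, scaled to control siRNA as percent viability; sensitisation given as log2 of untreated divided by camptothecin-treated viability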
Direction: log2 vehicle/camptothecin viability: higher = stronger sensitisation to camptothecin; viability with camptothecin and viability without drug: higher = more viable cells
Active means: 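Each gene scored by redundant siRNA activity (RSA) over its individual siRNA ratios; a gene is called active at p < 0.001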
Here is a random part of about 26,000 deposited reagents. 167 of them (0.63%) were called active. 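Calls are per gene from RSA p-values that are not deposited; an individual active-marked siRNA can sensitise only weakly.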 The numbers tell different reagents against one gene apart. Reagent sequences are not shown.

gene symbol	reagent no.	log2 vehicle/camptothecin viability	viability with camptothecin (% of control)	viability without drug (% of control)	Call
JUND (JunD proto-oncogene, AP-1 transcription factor subunit)	1	0.0874	52.1	55.3	inactive
JUND (JunD proto-oncogene, AP-1 transcription factor subunit)	2	-0.447	40.7	29.9	inactive
JUND (JunD proto-oncogene, AP-1 transcription factor subunit)	3	-0.499	74	52.4	inactive
JUND (JunD proto-oncogene, AP-1 transcription factor subunit)	4	-0.305	19.1	15.5	inactive
OR2F1 (olfactory receptor family 2 subfamily F member 1)	1	0.00419	66.6	66.8	inactive
OR2F1 (olfactory receptor family 2 subfamily F member 1)	2	-0.139	66.9	60.8	inactive
OR2F1 (olfactory receptor family 2 subfamily F member 1)	3	-0.321	73.7	59	inactive
OR2F1 (olfactory receptor family 2 subfamily F member 1)	4	-0.153	103	92.7	inactive
NSD1 (nuclear receptor binding SET domain protein 1)	1	0.134	87	95.5	inactive
NSD1 (nuclear receptor binding SET domain protein 1)	2	-0.0542	91.4	88.1	inactive
NSD1 (nuclear receptor binding SET domain protein 1)	3	-0.365	69.4	53.9	inactive
NSD1 (nuclear receptor binding SET domain protein 1)	4	-0.502	83.4	58.9	inactive
DAPK2 (death associated protein kinase 2)	1	-0.0278	118	115	inactive
DAPK2 (death associated protein kinase 2)	2	0.195	73.5	84.2	inactive
DAPK2 (death associated protein kinase 2)	3	0.361	36.2	46.4	inactive
DAPK2 (death associated protein kinase 2)	4	-0.71	69.2	42.3	inactive
PDLIM7 (PDZ and LIM domain 7)	1	-0.0601	109	105	inactive
PDLIM7 (PDZ and LIM domain 7)	2	-0.0143	34.6	34.3	inactive
PDLIM7 (PDZ and LIM domain 7)	3	0.178	77	87.1	inactive
PDLIM7 (PDZ and LIM domain 7)	4	-0.163	67.5	60.2	inactive
LIFR (LIF receptor subunit alpha)	1	-0.276	64.9	53.6	inactive
LIFR (LIF receptor subunit alpha)	2	-0.0428	108	105	inactive
LIFR (LIF receptor subunit alpha)	3	-0.207	65.8	57	inactive
LIFR (LIF receptor subunit alpha)	4	0.214	25.5	29.6	inactive
KIF27 (kinesin family member 27)	1	-0.125	72.9	66.8	inactive
KIF27 (kinesin family member 27)	2	-0.355	96.2	75.3	inactive
KIF27 (kinesin family member 27)	3	-0.189	80.3	70.4	inactive
KIF27 (kinesin family member 27)	4	-0.449	54.8	40.1	inactive
STC1 (stanniocalcin 1)	1	-0.471	57.9	41.8	inactive
STC1 (stanniocalcin 1)	2	0.718	47.1	77.5	inactive
STC1 (stanniocalcin 1)	3	-0.141	132	119	inactive
STC1 (stanniocalcin 1)	4	-0.14	101	91.4	inactive

Sorted by “viability without drug (% of control)” (lowest first): 7 of the entries above.
gene symbol	reagent no.	log2 vehicle/camptothecin viability	viability with camptothecin (% of control)	viability without drug (% of control)	Call
NSD1 (nuclear receptor binding SET domain protein 1)	3	-0.365	69.4	53.9	inactive
NSD1 (nuclear receptor binding SET domain protein 1)	4	-0.502	83.4	58.9	inactive
OR2F1 (olfactory receptor family 2 subfamily F member 1)	3	-0.321	73.7	59	inactive
NSD1 (nuclear receptor binding SET domain protein 1)	2	-0.0542	91.4	88.1	inactive
OR2F1 (olfactory receptor family 2 subfamily F member 1)	4	-0.153	103	92.7	inactive
NSD1 (nuclear receptor binding SET domain protein 1)	1	0.134	87	95.5	inactive
DAPK2 (death associated protein kinase 2)	1	-0.0278	118	115	inactive

Additional entries:
gene symbol	reagent no.	log2 vehicle/camptothecin viability	viability with camptothecin (% of control)	viability without drug (% of control)	Call
SPAG5 (sperm associated antigen 5)	1	-0.182	84.6	74.5	inactive
SPAG5 (sperm associated antigen 5)	2	0.339	59.2	74.9	inactive
SPAG5 (sperm associated antigen 5)	3	-0.0905	91.2	85.6	inactive
SPAG5 (sperm associated antigen 5)	4	0.722	15	24.8	inactive
NKX2-8 (NK2 homeobox 8)	1	-0.154	90.2	81	inactive
NKX2-8 (NK2 homeobox 8)	2	0.268	63.3	76.2	inactive
NKX2-8 (NK2 homeobox 8)	3	-0.123	85.8	78.8	inactive
NKX2-8 (NK2 homeobox 8)	4	-0.173	74.8	66.3	inactive
CCL13 (C-C motif chemokine ligand 13)	1	-0.495	114	80.9	inactive
CCL13 (C-C motif chemokine ligand 13)	2	-0.198	40.4	35.2	inactive
CCL13 (C-C motif chemokine ligand 13)	3	0.264	79.6	95.6	inactive
CCL13 (C-C motif chemokine ligand 13)	4	-0.232	110	93.5	inactive
EP300 (EP300 lysine acetyltransferase)	1	0.136	85.3	93.7	inactive
EP300 (EP300 lysine acetyltransferase)	2	-0.0499	86.4	83.5	inactive
EP300 (EP300 lysine acetyltransferase)	3	-0.335	95.8	75.9	inactive
EP300 (EP300 lysine acetyltransferase)	4	-0.335	55.6	44.1	inactive
CD38 (CD38 molecule)	1	-0.39	83.8	63.9	inactive
CD38 (CD38 molecule)	2	0.0615	60.1	62.8	inactive
CD38 (CD38 molecule)	3	-0.494	78.5	55.8	inactive
ADD1 (adducin 1)	1	-0.15	16.2	14.6	inactive
ADD1 (adducin 1)	2	0.913	40.4	76.2	inactive
ADD1 (adducin 1)	3	0.147	35.2	39	inactive
ADD1 (adducin 1)	4	-0.403	98.8	74.7	inactive
SNW1 (SNW domain containing 1)	1	0.506	3.24	4.6	inactive
SNW1 (SNW domain containing 1)	2	-0.577	38.6	25.8	inactive
SNW1 (SNW domain containing 1)	3	-0.287	27.4	22.5	inactive
SNW1 (SNW domain containing 1)	4	-0.471	20.6	14.9	inactive
BIRC2 (baculoviral IAP repeat containing 2)	1	0.84	48.6	86.9	inactive
BIRC2 (baculoviral IAP repeat containing 2)	2	-0.439	13.1	9.65	inactive
BIRC2 (baculoviral IAP repeat containing 2)	3	0.122	49.9	54.3	inactive
BIRC2 (baculoviral IAP repeat containing 2)	4	-0.0586	83.8	80.4	inactive
GUCY2D (guanylate cyclase 2D, retinal)	1	0.06	79.6	82.9	inactive
GUCY2D (guanylate cyclase 2D, retinal)	2	-0.00268	95.7	95.5	inactive
GUCY2D (guanylate cyclase 2D, retinal)	3	-0.189	109	95.2	inactive
GUCY2D (guanylate cyclase 2D, retinal)	4	0.667	30.1	47.9	inactive
SLC4A9	1	-0.517	78.1	54.5	inactive
SLC4A9	2	-0.297	76.6	62.4	inactive
SLC4A9	3	-0.561	71	48.1	inactive
